Source: the supplement of paper PMC11659162
Several values for one entry are separate records, joined by “and”; a condition that tells them apart may be missing. Identical values can stand only once. The list shows a part of the results. This is a noisy data set.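 The cells are a human neuroglioma line carrying a green fluorescent autophagy reporter.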

Tests used:
H4 GFP-LC3 [1] = assay: cell viability (scaled to control) (fraction of control); higher = more viable cells; details: 5 µM
H4 GFP-LC3 [2] = assay: ACBP immunofluorescence intensity (scaled to control) (AU (scaled)); higher = more intracellular ACBP/DBI; details: 5 µM

SMILES | cell viability (H4 GFP-LC3 [1]; 6 h) | cell viability (H4 GFP-LC3 [1]; 24 h) | ACBP immunofluorescence intensity (H4 GFP-LC3 [2]; 6 h) | ACBP immunofluorescence intensity (H4 GFP-LC3 [2]; 24 h)
C=CCN1C[C@H](C(=O)N(CCCN(C)C)C(=O)NCC)C[C@@H]2c3cccc4[nH]cc(c34)C[C@H]21 | 0.889 | 1.16 | 0.974 | 0.816
CCc1c(C(=O)OC)ncc2[nH]c3cc(OC)c(OC)cc3c12 | 0.883 | 1.01 | 0.884 | 0.478
NC(=O)[C@H](Cc1ccccc1)NC(=O)[C@H](Cc1ccccc1)NC(=O)[C@@H]1CCCN1C(=O)[C@@H](N)Cc1ccc(O)cc1 | 1 and 1.03 | 1.15 and 0.847 | 0.518 and 0.777 | 0.662 and 0.603
C=CCN1CC[C@]23c4c5ccc(O)c4O[C@H]2C(=O)CC[C@@]3(O)[C@H]1C5 | 1.05 | 1.1 | 0.787 | 0.864
CC[C@H](C)[C@H](NC(=O)C(CCCN=C(N)N)NC(=O)[C@H](CCCN=C(N)N)NC(=O)[C@H](CC(C)C)NC(=O)[C@H](Cc1ccccc1)NC(=O)CNC(=O)CNC(=O)[C@@H](N)Cc1ccc(O)cc1)C(=O)O (some centres not stated) | 1.14 | 1.05 | 0.815 | 0.698
C[C@@H](NC(=O)[C@@H](N)Cc1ccc(O)cc1)C(=O)NCC(=O)N(C)[C@@H](Cc1ccccc1)C(=O)N[C@H](CO)CC[S+](C)[O-] (some centres not stated) | 0.948 | 1.14 | 0.909 | 0.904
Clc1cncc(N2CCNCC2)n1 | 0.732 | 1.15 | 1 | 0.941
Clc1ccc(N2CCN(Cc3c[nH]c4ncccc34)CC2)cc1 | 0.762 | 1.22 | 0.994 | 0.854
O=C(O)/C=C/CO | 0.944 | 1.19 | 0.963 | 0.828
CN1[C@@H]2CC[C@H]1CC(OC(c1ccc(F)cc1)c1ccc(F)cc1)C2 (some centres not stated) | 0.845 | 1.08 | 0.905 | 0.669
CC(=O)NCCc1c[nH]c2ccccc12 | 1.09 | 1.2 | 0.924 | 0.617
NC(=O)[C@@H]1CCCN1C(=O)[C@H](Cc1ccccc1)NC(=O)[C@@H]1CCCN1C(=O)[C@@H](N)Cc1ccc(O)cc1 | 1.08 | 1.14 | 0.842 | 0.909
O=C1CC[C@@]2(O)[C@H]3Cc4ccc(O)c5c4[C@@]2(CCN3CC2CC2)[C@H]1O5 | 1.1 | 0.918 | 0.886 | 0.485
C=CCN1C[C@H](C)N([C@@H](c2ccccc2)c2ccc(C(=O)N(CC)CC)cc2)C[C@H]1C | 0.931 | 1.06 | 0.896 | 0.678
CC(C)(C)NCC(O)c1cc(Cl)c(N)c(Cl)c1 (configuration not stated) | 0.946 | 0.744 | 0.787 | 0.4
NCc1cc(O)no1 | 0.916 | 1.03 | 0.983 | 0.933
CCN1C[C@]2(COC(=O)c3ccccc3N3C(=O)C[C@H](C)C3=O)CC[C@H](OC)[C@@]34[C@@H]5C[C@H]6[C@H](OC)[C@@H]5[C@](O)(C[C@@H]6OC)[C@](O)([C@@H](OC)[C@H]23)[C@@H]14 | 0.852 | 0.966 | 0.929 | 0.464

SMILES | cell viability (H4 GFP-LC3 [1]; 6 h) | cell viability (H4 GFP-LC3 [1]; 24 h) | ACBP immunofluorescence intensity (H4 GFP-LC3 [2]; 6 h) | ACBP immunofluorescence intensity (H4 GFP-LC3 [2]; 24 h)
C[C@@H](NC(=O)[C@@H](N)Cc1ccc(O)cc1)C(=O)N[C@@H](Cc1ccccc1)C(=O)NCC(=O)N[C@@H](Cc1ccc(O)cc1)C(=O)N1CCC[C@H]1C(=O)N[C@@H](CO)C(N)=O | 0.992 | 1.2 | 0.847 | 0.8
C[N+](C)(C)CCCCCCCCCC[N+](C)(C)C | 0.91 | 0.977 | 0.958 | 0.46
CCCN1C[C@H](CSC)C[C@@H]2c3cccc4[nH]cc(c34)C[C@H]21 | 0.842 | 1.36 | 0.992 | 0.845
COc1ccc(OC)c(C(O)C(C)N)c1 (configuration not stated) | 0.926 | 0.909 | 0.859 | 0.376
CCC(C)C(NC(=O)C1CCCN1C(=O)C(CCC(=O)O)NC(=O)C(NC(=O)C(Cc1ccccc1)NC(=O)C1CCCN1C(=O)C(N)Cc1ccc(O)cc1)C(C)C)C(=O)O (configuration not stated) | 1.14 | 1.22 | 0.598 | 0.917
CC(=O)O[C@H]1C[C@@H]2CC[C@@H]3[C@H](CC[C@@]4(C)[C@H]3C[C@H]([N+]3(C)CCCCC3)[C@@H]4OC(C)=O)[C@@]2(C)C[C@@H]1[N+]1(C)CCCCC1 | 0.73 | 0.977 | 0.928 | 0.51
NCCc1c[nH]c2ccccc12 | 1.23 | 0.974 | 0.38 | 0.659
CCCN(CCC)[C@@H]1CCc2c(OC)cccc2[C@@H]1C | 0.913 | 1.19 | 0.681 | 0.539
C=CCN1CC[C@]23CCCC[C@H]2[C@H]1Cc1ccc(O)cc13 | 1.09 | 1.25 | 0.842 | 0.686
C[C@@H](CO)NC(=O)[C@@H]1C=C2c3cccc4[nH]cc(c34)C[C@H]2N(C)C1 | 0.831 | 1.23 | 0.907 | 0.572
CN1C(=O)CCS(=O)(=O)C1c1ccc(Cl)cc1 (configuration not stated) | 0.767 | 0.929 | 0.983 | 0.439
CN1[C@@H]2CC[C@H]1C[C@@H](OC(=O)c1cc(Cl)cc(Cl)c1)C2 | 0.884 | 1.09 | 0.955 | 0.826
C(=C\c1ccccc1)/CN1CCN(CCOC(c2ccccc2)c2ccccc2)CC1 | 0.952 | 1.31 | 0.871 | 0.553
CN1CC(CNC(=O)OCc2ccccc2)CC2c3cccc4c3c(cn4C)CC21 (configuration not stated) | 0.741 | 1.02 | 0.98 | 0.754
Cc1cccc(C)c1NC1=NCCCS1 | 0.639 | 0.822 | 0.919 | 0.455
CN(C(=O)Cc1ccc(Cl)c(Cl)c1)C(CN1CCCC1)c1cccc(OCC(=O)O)c1 (configuration not stated) | 1.09 | 1.09 | 0.865 | 0.768
